According to US20050106100A1 (priority 2003, published 2005):
[ ]: non-standard residue; d: D form. The star is where a group is joined. X1 = O=C(c1ccc(N/N=C/c2ccccc2S(=O)(=O)O)nc1)*; hPhe = N[C@@H](CCc1ccccc1)C(=O)O; Orn = NCCC[C@H](N)C(=O)O; Ahx = NCCCCCC(=O)O

Legend:
[1] = general procedure: Fmoc solid-phase peptide synthesis; HMPB-BHA resin; HBTU/HOBt/diisopropylethylamine; conditions: whole synthesis
[2] = general procedure: Fmoc solid-phase peptide synthesis; Fmoc-Glu(Ot-Bu)-Wang resin (0.9 mmol/g); 1,6-diaminohexane trityl resin ([…]); HBTU/HOBt/diisopropylethylamine; conditions: whole synthesis; for isolated yield: overall

Substance	isolated yield [1] [%]	final HPLC purity [1] [%]	final HPLC purity [2]	isolated yield [2]
Ac-PL-NLys(Boc)-LL-OH	63	100		
Ac-PLG-Ahp-Y(O-tBu)L-OH	77	100		
X1-[dF][dF][Ahx]PLG[hPhe][Orn]LEE-OH (SMILES CC(C)C[C@H](NC(=O)[C@H](CCCN)NC(=O)[C@H](CCc1ccccc1)NC(=O)CNC(=O)[C@H](CC(C)C)NC(=O)[C@@H]1CCCN1C(=O)CCCCCNC(=O)[C@@H](Cc1ccccc1)NC(=O)[C@@H](Cc1ccccc1)NC(=O)c1ccc(N/N=C/c2ccccc2S(=O)(=O)O)nc1)C(=O)N[C@@H](CCC(=O)O)C(=O)N[C@@H](CCC(=O)O)C(=O)O)			HPLC purity 100%	overall yield 4.4%
X1-[dF][dF][dF][Ahx]PLG[hPhe][Orn]LEE-OH (SMILES CC(C)C[C@H](NC(=O)[C@H](CCCN)NC(=O)[C@H](CCc1ccccc1)NC(=O)CNC(=O)[C@H](CC(C)C)NC(=O)[C@@H]1CCCN1C(=O)CCCCCNC(=O)[C@@H](Cc1ccccc1)NC(=O)[C@@H](Cc1ccccc1)NC(=O)[C@@H](Cc1ccccc1)NC(=O)c1ccc(N/N=C/c2ccccc2S(=O)(=O)O)nc1)C(=O)N[C@@H](CCC(=O)O)C(=O)N[C@@H](CCC(=O)O)C(=O)O)			HPLC purity 100%	overall yield 1.4%
